Results deposited as PubChem BioAssay AID1224830 (NIAID, 2016).
Aim: 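Host factors that control LPS-induced TNF expression in human macrophages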 (primary screen). Cell system: human THP-1 monocytic leukaemia cells, TNF dual-luciferase reporter clone, PMA-differentiated to macrophage-like cells. Reagent: siRNA pool against human genes, 50 nM. Timing: LPS for 4 h, given about 3 days after siRNA transfection. Challenge: bacterial LPS (TLR4 ligand), 10 ng/ml. Read-out: 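Ratio of firefly to renilla light, scaled to the plate median and expressed as a robust z-score per replicate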. Direction: TNF reporter robust z-score: higher = stronger TNF reporter response to LPS. Rule for the call: 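a well is active when its z-score exceeds 2.8 or falls below -1.5; control wells carry no call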.
The deposit covers about 18,000 reagents; shown is a part drawn at random. Over the whole deposit, about 2,900 (16%) got an active call. 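Calls are made per well; low scores hint the gene aids the LPS response, high scores that it dampens it.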 A number with no mark means an inactive call. Repeated entries: four replicate wells of each siRNA pool.

target	TNF reporter robust z-score
MED4 (mediator complex subunit 4)	-0.49
MED4 (mediator complex subunit 4)	-0.41
MED4 (mediator complex subunit 4)	-0.66
MED4 (mediator complex subunit 4)	-0.5
MEAF6 (MYST/Esa1 associated factor 6)	0.2
MEAF6 (MYST/Esa1 associated factor 6)	1.22
MEAF6 (MYST/Esa1 associated factor 6)	1.76
MEAF6 (MYST/Esa1 associated factor 6)	-0.19
DLST (dihydrolipoamide S-succinyltransferase)	0.7
DLST (dihydrolipoamide S-succinyltransferase)	0.5
DLST (dihydrolipoamide S-succinyltransferase)	0.3
DLST (dihydrolipoamide S-succinyltransferase)	-0.7
TAFA3 (TAFA chemokine like family member 3)	1.39
TAFA3 (TAFA chemokine like family member 3)	1.17
TAFA3 (TAFA chemokine like family member 3)	1.1
TAFA3 (TAFA chemokine like family member 3)	-0.89
FADD (Fas associated via death domain)	-0.67
FADD (Fas associated via death domain)	1.23
FADD (Fas associated via death domain)	-0.07
FADD (Fas associated via death domain)	2.33
SUPT4H1 (SPT4 homolog, DSIF elongation factor subunit)	-0.6
SUPT4H1 (SPT4 homolog, DSIF elongation factor subunit)	2.12
SUPT4H1 (SPT4 homolog, DSIF elongation factor subunit)	-0.22
SUPT4H1 (SPT4 homolog, DSIF elongation factor subunit)	-0.05
C6orf118 (chromosome 6 open reading frame 118)	1.05
C6orf118 (chromosome 6 open reading frame 118)	2.47
C6orf118 (chromosome 6 open reading frame 118)	0.83
C6orf118 (chromosome 6 open reading frame 118)	-0.32
CBR3 (carbonyl reductase 3)	2.5
CBR3 (carbonyl reductase 3)	2.53
CBR3 (carbonyl reductase 3)	2.47
CBR3 (carbonyl reductase 3)	1.83
IL13RA1 (interleukin 13 receptor subunit alpha 1)	1
IL13RA1 (interleukin 13 receptor subunit alpha 1)	2.4
IL13RA1 (interleukin 13 receptor subunit alpha 1)	-0.1
IL13RA1 (interleukin 13 receptor subunit alpha 1)	0.19
RPF1 (ribosome production factor 1 homolog)	-0.94
RPF1 (ribosome production factor 1 homolog)	-0.81
RPF1 (ribosome production factor 1 homolog)	-1.22
RPF1 (ribosome production factor 1 homolog)	-1.04
GRM1 (glutamate metabotropic receptor 1)	-0.43
GRM1 (glutamate metabotropic receptor 1)	0.28
GRM1 (glutamate metabotropic receptor 1)	-0.63
GRM1 (glutamate metabotropic receptor 1)	-0.49
ANKS4B (ankyrin repeat and sterile alpha motif domain containing 4B)	-1.17
ANKS4B (ankyrin repeat and sterile alpha motif domain containing 4B)	-0.62
ANKS4B (ankyrin repeat and sterile alpha motif domain containing 4B)	-0.45
ANKS4B (ankyrin repeat and sterile alpha motif domain containing 4B)	-0.69
AK5 (adenylate kinase 5)	-0.61
AK5 (adenylate kinase 5)	1.91
AK5 (adenylate kinase 5)	2.46
AK5 (adenylate kinase 5)	1.27
HLA-DRB1 (major histocompatibility complex, class II, DR beta 1)	0.14
HLA-DRB1 (major histocompatibility complex, class II, DR beta 1)	0.19
HLA-DRB1 (major histocompatibility complex, class II, DR beta 1)	0.34
HLA-DRB1 (major histocompatibility complex, class II, DR beta 1)	1.98
RNASE1 (ribonuclease A family member 1, pancreatic)	-1.33
RNASE1 (ribonuclease A family member 1, pancreatic)	-1.31
RNASE1 (ribonuclease A family member 1, pancreatic)	-1.42
RNASE1 (ribonuclease A family member 1, pancreatic)	-0.8
MBTPS1 (membrane bound transcription factor peptidase, site 1)	0.79
MBTPS1 (membrane bound transcription factor peptidase, site 1)	-0.2
MBTPS1 (membrane bound transcription factor peptidase, site 1)	0.63
MBTPS1 (membrane bound transcription factor peptidase, site 1)	-1.12
IL18 (interleukin 18)	-0.76
IL18 (interleukin 18)	-0.11
IL18 (interleukin 18)	0.37
IL18 (interleukin 18)	0.46
B4GALT7 (beta-1,4-galactosyltransferase 7)	0.01
B4GALT7 (beta-1,4-galactosyltransferase 7)	0.1
B4GALT7 (beta-1,4-galactosyltransferase 7)	0.11
B4GALT7 (beta-1,4-galactosyltransferase 7)	1.5
LOC389834 (ankyrin repeat domain 57 pseudogene)	-0.92
LOC389834 (ankyrin repeat domain 57 pseudogene)	-1.27
LOC389834 (ankyrin repeat domain 57 pseudogene)	-2.14 (active)
LOC389834 (ankyrin repeat domain 57 pseudogene)	-1.35

Active calls (from the list above):
target	TNF reporter robust z-score
LOC389834 (ankyrin repeat domain 57 pseudogene)	-2.14 (active)
